Results are given in words; binding and its absence hold for the method and conditions named. In cells and extracts the contact can be indirect. Binding can be weak; no strength is given. Where a sequence is shown, tags or fusion partners need not be part of it.
Target: T1, Human Myc-DHHC6 (WT) (human) (UniProt Q9H6R6)
T1 sequence: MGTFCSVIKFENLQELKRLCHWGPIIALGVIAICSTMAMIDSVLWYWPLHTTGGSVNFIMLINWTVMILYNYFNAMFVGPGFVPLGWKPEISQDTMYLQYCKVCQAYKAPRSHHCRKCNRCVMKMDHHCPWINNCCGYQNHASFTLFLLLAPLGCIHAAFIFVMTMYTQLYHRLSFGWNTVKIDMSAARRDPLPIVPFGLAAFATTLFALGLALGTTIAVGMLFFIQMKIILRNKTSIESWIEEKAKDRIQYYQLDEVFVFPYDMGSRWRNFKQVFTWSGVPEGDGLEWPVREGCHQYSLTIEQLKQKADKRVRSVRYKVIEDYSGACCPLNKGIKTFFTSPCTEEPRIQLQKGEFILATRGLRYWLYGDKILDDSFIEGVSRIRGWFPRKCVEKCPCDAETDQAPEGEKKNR
Assay: co-IP

Human FLAG-DHHC16 (enzyme)
binding: binds

Source: article doi:10.1101/134007
